Results on eight substances are retold here after article PMC6420622.

Sequences of proteins named here, by UniProt entry; tags and fusion partners are left off. A change or cut given only in a name is not applied to a line headed by its entry.
UniProt Q8N371: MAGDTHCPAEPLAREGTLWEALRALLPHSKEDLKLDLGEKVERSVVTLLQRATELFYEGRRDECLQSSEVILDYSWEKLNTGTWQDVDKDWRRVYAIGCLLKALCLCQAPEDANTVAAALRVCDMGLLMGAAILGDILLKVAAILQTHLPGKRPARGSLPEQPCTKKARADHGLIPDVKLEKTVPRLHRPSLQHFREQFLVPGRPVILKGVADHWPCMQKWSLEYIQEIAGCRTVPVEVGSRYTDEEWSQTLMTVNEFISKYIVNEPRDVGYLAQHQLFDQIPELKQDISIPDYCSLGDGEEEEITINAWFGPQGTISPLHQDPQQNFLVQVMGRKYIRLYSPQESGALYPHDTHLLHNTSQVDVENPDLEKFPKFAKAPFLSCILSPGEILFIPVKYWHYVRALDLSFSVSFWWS
UniProt P14618: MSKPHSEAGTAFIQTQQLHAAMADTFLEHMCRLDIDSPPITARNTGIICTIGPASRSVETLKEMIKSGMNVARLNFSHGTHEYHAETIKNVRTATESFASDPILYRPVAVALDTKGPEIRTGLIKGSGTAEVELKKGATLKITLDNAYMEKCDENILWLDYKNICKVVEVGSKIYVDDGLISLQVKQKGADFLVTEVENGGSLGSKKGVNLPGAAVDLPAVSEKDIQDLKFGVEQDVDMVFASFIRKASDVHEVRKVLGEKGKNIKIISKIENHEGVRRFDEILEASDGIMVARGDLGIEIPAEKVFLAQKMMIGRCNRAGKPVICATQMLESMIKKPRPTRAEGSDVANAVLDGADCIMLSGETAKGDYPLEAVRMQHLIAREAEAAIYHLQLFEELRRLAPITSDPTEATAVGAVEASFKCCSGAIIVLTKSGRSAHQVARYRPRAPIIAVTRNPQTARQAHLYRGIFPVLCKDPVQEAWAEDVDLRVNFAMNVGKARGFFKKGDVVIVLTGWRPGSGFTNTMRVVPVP

No constants are given. Whether binding was seen depends on the method and setting. For part of these data: In cells and extracts the contact can be indirect. Some results given as binding are weak or reduced against the parent protein; the word gives no strength.

The target in assay [1] is endogenous KDM8 (human (endogenous in MCF7)) (UniProt Q8N371). Briefly: co-IP; MCF7 cells transfected with HA-PKM2 (wild-type or variant); IP of endogenous KDM8 with homemade rabbit anti-KDM8; Western blotting. In general terms: In western blotting, separated proteins are transferred to a membrane and probed.
The target of another assay is Flag-tagged KDM8 (UniProt Q8N371). In words: co-IP; reciprocal: MCF7 cells co-transfected with HA-PKM2 (wild-type or variant) and Flag-KDM8; IP with anti-Flag, protein A/G magnetic beads, 4 °C overnight; Western blotting.
Another assay has as its target GST-tagged KDM8 (UniProt Q8N371). In words: pull-down; His-PKM2 (2 uM) with GST-KDM8 (1 uM) or GST (1 uM) on Glutathione Sepharose; 40 mM Tris, 100 mM NaCl, 0.5% NP-40, pH 8.0; 2 h, 4 °C; Coomassie and anti-His Western blotting; both purified.
The target of the next assay is HA-tagged PKM2 G415R (UniProt P14618). Briefly: co-IP; MCF7 cells co-transfected with HA-PKM2 (wild-type or variant) and Flag-KDM8; IP with anti-HA, protein A/G magnetic beads, 4 °C overnight; IP lysis buffer 50 mM Tris-HCl pH 7.4, 150 mM NaCl, 0.5% NP-40; Western blotting.
Another assay addresses HA-tagged PKM2 H391Y (UniProt P14618). The assay is described as above.
Another assay deals with HA-tagged PKM2 R399E (UniProt P14618). Described as above.
Another assay concerns the target HA-tagged PKM2 wild-type (UniProt P14618). The assay is described as above.

As to “HA-tagged PKM2 G415R (from UniProt P14618 1-531) (enzyme)”, the binding entry (in assay [1]; with Flag-tagged KDM8) was “binds” each time.
Consider “His-tagged PKM2 H391Y (from UniProt P14618 1-531) (enzyme)”, for which the binding entry with GST-tagged KDM8 was “binds”.
For the substance “HA-tagged PKM2 wild-type (from UniProt P14618 1-531) (enzyme)”, the binding entry (in assay [1]; with Flag-tagged KDM8) was “binds” each time.
In the case of “His-tagged PKM2 wild-type (from UniProt P14618 1-531) (enzyme)”, the binding result with GST-tagged KDM8 is “binds”.
On to “HA-tagged PKM2 R399E (from UniProt P14618 1-531) (enzyme)”, for which the binding entry (in assay [1]; with Flag-tagged KDM8) was “binds” each time.
For “His-tagged PKM2 R399E (from UniProt P14618 1-531) (enzyme)”, the binding result with GST-tagged KDM8 is recorded as “binds”.
In the case of “HA-tagged PKM2 H391Y (from UniProt P14618 1-531) (enzyme)”, the binding result (in assay [1]; with Flag-tagged KDM8) was “binds” throughout.
As to “Flag-tagged KDM8 (from UniProt Q8N371 1-416) (enzyme)”, the binding entry with HA-tagged PKM2 G415R, in the assay with HA-tagged PKM2 H391Y, in the assay with HA-tagged PKM2 R399E and with HA-tagged PKM2 wild-type was “binds” each time.
